Legend:
caspase-3 = assay: Vimentin processing by caspase-3 (SDS-PAGE, Coomassie); type: biochemical, human; settings: caspase-3 20 nM, 30 min
calpain-1 = assay: Vimentin processing by calpain-1 (SDS-PAGE, Coomassie); type: biochemical, human; settings: calpain-1 10 nM

Substance	cleavage by caspase-3 (caspase-3)	full-length protein 30 min after addition of calpain-1 (calpain-1; 30 min)	cleavage by calpain-1 compared to nonmodified form (calpain-1; up to 30 min)	full-length protein 15 min after addition of calpain-1 (calpain-1; 15 min)
citrullinated vimentin: PAD4-mediated citrullinated vimentin	cleaved at the same sites and exhibited similar kinetics	remained detectable	delayed	–
vimentin: Recombinant vimentin, purchased from Biotechne (NBP2-35139)	cleaved at the same sites and exhibited similar kinetics	–	–	almost completely disappeared

Source: PMC12509316, “Isoform-Selective PAD2/PAD4 Substrates with Unnatural Amino Acids Enable Cellular Peptidylarginine Deiminase Activity Profiling and Reveal Vimentin Citrullination Effects in Macrophages” (Biochemistry, 2025)
